# In article PMC10542755:
# These are yes or no findings as the source states them, for the method shown. Binding seen in cells or lysates may run through a third protein. Binding can be weak; no strength is given. Sequences can lack the tags named with a protein.
# Molecular target: T1, MYC-NDP52 (full length) (human) (UniProt Q13137)
# T1 sequence: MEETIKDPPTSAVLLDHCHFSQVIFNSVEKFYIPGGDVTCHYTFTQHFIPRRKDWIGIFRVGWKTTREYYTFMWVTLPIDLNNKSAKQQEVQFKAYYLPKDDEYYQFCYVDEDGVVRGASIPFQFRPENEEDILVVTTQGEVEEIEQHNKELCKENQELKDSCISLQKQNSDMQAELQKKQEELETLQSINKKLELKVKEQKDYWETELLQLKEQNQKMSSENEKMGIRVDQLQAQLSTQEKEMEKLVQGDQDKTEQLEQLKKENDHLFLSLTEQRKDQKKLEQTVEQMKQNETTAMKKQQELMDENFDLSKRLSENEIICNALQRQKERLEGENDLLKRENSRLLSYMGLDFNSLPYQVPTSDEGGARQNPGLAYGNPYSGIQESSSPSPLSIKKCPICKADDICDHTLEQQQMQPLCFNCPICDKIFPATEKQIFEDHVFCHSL
# Assay: co-IP; HEK293FT cells co-transfected with MYC-NDP52 or MYC-tagged domain-deleted mutants and CTRL (pcDNA3.1) or FLAG-BEX2; precipitated with MYC antibody
substance,measurement,value
FLAG-BEX2 (human),binding,binds
